The shares of active, inactive and inconclusive entries below differ from those in the screen. Potencies beside an inconclusive call are fits to weak or partial responses and may not hold up. Active and inactive are the calls of the source. How the source made its calls: active means hit-call score of the fitted dose curve at least 0.9, where 1 is the maximum; inconclusive means response in the unintended direction; inactive means score below 0.9.
Target: bovine Dopamine Receptor (DR), Non-selective Binding, DRD1 (gene 281125) (UniProt Q95136)
Test: NVS_GPCR_bDR_NonSelective: NovaScreen (NVS) G Protein-Coupled Receptor Assay for bovine Dopamine Receptor (DR), Non-selective Binding (AID 2283241)
Method in brief: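 Filter-based radioligand binding with bovine striatal membrane, incubated 1 h; DMSO as negative baseline. Initial duplicate single-point test at 25 uM preceded concentration series for actives.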

The chains behind the UniProt entries cited, without tags or fusion partners.
UniProt Q95136, whole entry, looked up: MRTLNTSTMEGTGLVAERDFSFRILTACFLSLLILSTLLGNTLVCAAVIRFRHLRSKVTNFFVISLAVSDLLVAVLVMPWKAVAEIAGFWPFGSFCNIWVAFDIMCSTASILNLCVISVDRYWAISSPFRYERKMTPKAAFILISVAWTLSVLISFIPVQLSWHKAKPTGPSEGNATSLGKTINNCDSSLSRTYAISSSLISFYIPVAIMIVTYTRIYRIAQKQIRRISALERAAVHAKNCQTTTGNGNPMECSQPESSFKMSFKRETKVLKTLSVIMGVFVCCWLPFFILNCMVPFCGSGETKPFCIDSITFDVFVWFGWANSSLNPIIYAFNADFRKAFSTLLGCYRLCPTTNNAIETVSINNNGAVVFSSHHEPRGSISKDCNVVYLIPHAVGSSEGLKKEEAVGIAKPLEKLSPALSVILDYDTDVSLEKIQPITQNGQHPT

Structure (SMILES)	AC50
CCN(CC)CCOc1ccc(C(=C(Cl)c2ccccc2)c2ccccc2)cc1	active: 14.2 µM
CN(C)C(=O)C1(N2CCCCC2)CCN(CC[C@@]2(c3ccc(Cl)c(Cl)c3)CN(C(=O)c3ccccc3)CCO2)CC1	active: 4.5 µM
CC(C)CCCCCCOC(=O)CCCCC(=O)OCCCCCCC(C)C	inconclusive: 44.3 µM
Nc1ccc(Nc2ccccc2)cc1	inconclusive: 0.651 µM

Reference: PubChem BioAssay (EPA / NIEHS)
